The list shows a part of the results.

This assay concerns the target T1, OsSMF1 (Oryza sativa, UniProt Q6ZLB0 1-436).
T1 sequence: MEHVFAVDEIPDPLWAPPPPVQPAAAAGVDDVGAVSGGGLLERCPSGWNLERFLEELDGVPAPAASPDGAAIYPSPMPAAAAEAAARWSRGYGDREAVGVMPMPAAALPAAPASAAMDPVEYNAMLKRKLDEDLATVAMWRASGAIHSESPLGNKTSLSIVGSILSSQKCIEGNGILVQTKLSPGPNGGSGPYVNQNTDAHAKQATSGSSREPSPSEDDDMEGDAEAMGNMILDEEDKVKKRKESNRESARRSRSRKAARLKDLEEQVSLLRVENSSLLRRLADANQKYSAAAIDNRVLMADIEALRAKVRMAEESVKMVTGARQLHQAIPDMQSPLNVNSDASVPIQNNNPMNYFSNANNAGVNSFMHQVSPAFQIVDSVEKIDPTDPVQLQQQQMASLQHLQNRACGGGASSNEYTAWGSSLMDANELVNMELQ
Briefly: protein-binding microarray (RPBM); PBS, 2% BSA, 51.3 ng/ul salmon testes DNA, 50 uM zinc acetate, 200 nM TF, 25 C, 1 h; high values mean tight binding. As to conditions: protein: recombinant; tags: N-terminal polyhistidine and DsRed monomer fusion (pET32a); chain copies: 2; label: CyDye5-dUTP incorporated in the synthesized complementary strand; 3' TTTTT single-stranded linker to array surface; dsDNA, one strand shown. The method in brief:
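Transcription factors, each fused N-terminally to a polyhistidine tag and DsRed, were expressed in E. coli BL21-CodonPlus and purified on Ni–NTA. A custom Agilent array was made double-stranded by primer extension with Cy5-dUTP and blocked with 2% BSA. It was incubated with 200 nM protein in PBS, 2% BSA, salmon testes DNA and 50 µM zinc acetate at 25 °C for 1 h, then washed. The binding signal is per-feature fluorescence intensity (arbitrary units) read on an Axon 4000B scanner.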
As to “TCTACGTGGCGGCTGAGTCAGCATGGGGCCCACGTGGGCCCGGAGTCACCTAGTGCAG”, the binding signal is 14600 fluorescence intensity (a.u.). With “GCGTGCGTCCATATTCTATATACTTAGTATATAGTTATTACGGAGTCACCTAGTGCAG” the figure was 26900 fluorescence intensity (a.u.); with “GCTCGCCGCGTGCTCTCGTCATCCATCCGACCCACGCCCGCGGAGTCACCTAGTGCAG”, 4780 fluorescence intensity (a.u.). As for “GATTAATTGTTGCATTTAAAATGTGGGTCATGACCGCTATCGGAGTCACCTAGTGCAG”, the binding signal was 3650 fluorescence intensity (a.u.).

Regarding “GGAATTTCTCTTTCTACACAACTGTTTGCGTCAACATATACGGAGTCACCTAGTGCAG”, the binding signal was 3200 fluorescence intensity (a.u.). On to “AATAGGTTGCAAGGTATCTCCTATGACGTATTCTCGTATGCGGAGTCACCTAGTGCAG”, for which the binding signal is 5210 fluorescence intensity (a.u.). For “CCAATACCGATATTGCGCTTACGTCACACTACCGTTACCACGGAGTCACCTAGTGCAG”, the binding signal was 8320 fluorescence intensity (a.u.).

Regarding “CAAACTAGCAACATCCCAAATTTTACCAGGTGTATATATACGGAGTCACCTAGTGCAG”, the binding signal is 4250 fluorescence intensity (a.u.). To “TTTTAACGCATTGACATGACAGTGTAGCACCAACAACTTCCGGAGTCACCTAGTGCAG” belongs 3370 fluorescence intensity (a.u.); to “GCGGCAGGGGCGGATCGAGGCACGTTGGCGCCGGATGGAGCGGAGTCACCTAGTGCAG”, 3240 fluorescence intensity (a.u.); to “CGCGCGCGCCCTACGTGGGCCATGTGGACCGGGAGTGCGCCGGAGTCACCTAGTGCAG”, 4710 fluorescence intensity (a.u.).

For the sequence “TCCTCTATGGCGCCGCTTACGTCCCGCCGCCCCGCTCCTGCGGAGTCACCTAGTGCAG”, the binding signal was 3150 fluorescence intensity (a.u.). To “GATGGGATCGGAGGAATGGAACACACAATATATATGTGTGCGGAGTCACCTAGTGCAG” belongs 4040 fluorescence intensity (a.u.); to “CGCACACGCCACGTAAATCGTACTGCCTAAACCAGGCCTACGGAGTCACCTAGTGCAG”, 4000 fluorescence intensity (a.u.). With “CCGCGCCGCCGCCGCCGCCGCCACCGCCGCATCGCCGCTGCGGAGTCACCTAGTGCAG” the figure was 4080 fluorescence intensity (a.u.). In the case of “TGCCGTGCTCGCCGCTGCTGCTTCCGTAGCGTCACAAACTCGGAGTCACCTAGTGCAG”, the binding signal was 33800 fluorescence intensity (a.u.). In the case of “AGACCCCTTCTGTCACATCAGCAGATCAGCTCAAGTGCTCCGGAGTCACCTAGTGCAG”, the binding signal is 3350 fluorescence intensity (a.u.). With “GGCAACATCCAACGGGAAGTGCGCGTCACGTCCCACCGGCCGGAGTCACCTAGTGCAG” the figure was 6880 fluorescence intensity (a.u.); with “TAACATCTTCCTCACGCACCGATTGTCCTACACCACTCAGCGGAGTCACCTAGTGCAG”, 23300 fluorescence intensity (a.u.); with “TTTTCGTGGACTCGTGGCCAACTCCAATACGTTTCCAACCCGGAGTCACCTAGTGCAG”, 3150 fluorescence intensity (a.u.). As for “GCTGAAGCATGCCTGACATTTTCATTGGTCTGTTTGGTTCCGGAGTCACCTAGTGCAG”, the binding signal was 36600 fluorescence intensity (a.u.). For “GGCTGGTTTGGTTTGTGGCTAAAATTGGCCTTACCAATTTCGGAGTCACCTAGTGCAG”, the binding signal is 12600 fluorescence intensity (a.u.). Regarding “GCCTACAAATCGCGGTGATGGTCGCGTCAGCGTCGCAAGCCGGAGTCACCTAGTGCAG”, the binding signal was 3270 fluorescence intensity (a.u.).

Consider “ATTTGCTGCTTACACGGCATTTTGACTATGCGTGTAGTACCGGAGTCACCTAGTGCAG”, for which the binding signal is 3780 fluorescence intensity (a.u.). To “TCAAGAGATTCGTTACATGGCTACAAGGTCACAAATTAGTCGGAGTCACCTAGTGCAG” belongs 7240 fluorescence intensity (a.u.); to “CGCCCCAAAGATCACACGAACGCGTGACGCCGCCCGTCACCGGAGTCACCTAGTGCAG”, 3880 fluorescence intensity (a.u.). To “AGATAGTGGGATGCATATGCAGGAAACAGCCAGCTCATCACGGAGTCACCTAGTGCAG” belongs 6560 fluorescence intensity (a.u.); to “AAAATTGATATGTAATTATGACACACTTACGTCGGATATGCGGAGTCACCTAGTGCAG”, 6000 fluorescence intensity (a.u.); to “CAAATGCTTATGAGCACACCTGCGAATGTGTCATCTAGCGCGGAGTCACCTAGTGCAG”, 5060 fluorescence intensity (a.u.). With “TCTGGTGCAGGGGCGAACGCGATTAGCCATGATGTAGCGTCGGAGTCACCTAGTGCAG” the figure was 27900 fluorescence intensity (a.u.). For “GCCGGCACGCTGTACAGGGACGTGGCGTCGCCGTGGCCGACGGAGTCACCTAGTGCAG”, the binding signal is 7810 fluorescence intensity (a.u.). To “CGACCGGATTAATCAGCAGGGGATCTGGGATTATTATTACCGGAGTCACCTAGTGCAG” belongs 3640 fluorescence intensity (a.u.); to “ACTTAACCGCAACGTCATCTACCAGAATCTTTCAACTCGACGGAGTCACCTAGTGCAG”, 6180 fluorescence intensity (a.u.); to “ATCGAAACGATGACACATGCTCTCGTCAGCCATGGAGATGCGGAGTCACCTAGTGCAG”, 7940 fluorescence intensity (a.u.). To “AACCAAATCTCCACGCCCTCAAATCCAACAAGCACGAGCTCGGAGTCACCTAGTGCAG” belongs 3140 fluorescence intensity (a.u.); to “AAGTAAGTTGGCGCTGACCTTGGCTACTTAGAGCCCGGCCCGGAGTCACCTAGTGCAG”, 3960 fluorescence intensity (a.u.). With “AGGAGGAGAAGAAGGTTCTGGAAGCTTCTGGACGGCCCCACGGAGTCACCTAGTGCAG” the figure was 25200 fluorescence intensity (a.u.); with “CTGCAGTGGAGTTGTGGAGCTATCTAAACCCAGCTCCACACGGAGTCACCTAGTGCAG”, 3220 fluorescence intensity (a.u.).

In the case of “AGCAACGTAGCTCAAACGTTGGTCAATCCATGTGCAATTACGGAGTCACCTAGTGCAG”, the binding signal is 3150 fluorescence intensity (a.u.). Turning to “TCGCCGGCGACCTCCCGCCCAAATCCGACGCCACCGCGCGCGGAGTCACCTAGTGCAG”, the binding signal is 3640 fluorescence intensity (a.u.).

“GTGCGGCGGTGGGGTTGGTCGAGGCGGCCGAGGGCTCGTCCGGAGTCACCTAGTGCAG”: the binding signal was 3320 fluorescence intensity (a.u.). With “AAAGCCACTTGCCATGTGTCAATCAAACTCAATATTTTCTCGGAGTCACCTAGTGCAG” the figure was 4520 fluorescence intensity (a.u.).

Values taken from publication PMC7819943, “Rice protein-binding microarrays: a tool to detect cis-acting elements near promoter regions in rice”.
